Results from PubChem BioAssay AID504834 (National Center for Advancing Translational Sciences (NCATS), 2011).
Out of some 320,000 compounds screened, about 22,000 (6.9%) were called active. This list was built around the results that the source calls inconclusive (neither active nor inactive); the mix of calls is not that of the screen. The call rests on the fitted dose curve; in most records, active means well fitted inhibition curve with a large enough effect; inconclusive means small, poorly fitted or top-dose-only effect, or another doubt; inactive means no such curve, though single readings can be large or run the other way. A potency beside an inconclusive call is a rough fit, not a confirmed value. Where a SMILES comes first, the peptide text is derived from it. [ ]: non-standard residue; d: D form. ξ: configuration not given here. ξF = NC(Cc1ccccc1)C(=O)O

assay: Primary qHTS for delayed death inhibitors of the malarial parasite plastid, 96 hour incubation; conditions: P. falciparum luciferase reporter growth; series mostly up to 28.7 µM; activity change, negative = inhibition: at the top concentration
How it was run: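 Cell-based qHTS: luciferase-tagged P. falciparum in erythrocytes (2% hematocrit, 0.05% parasitemia final) incubated with compounds for 96 hours, 37 C, 5% CO2; luciferase detection reagent then added and luminescence measured.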
On the % scale 0 is the no-effect control and ±100 the full control effect; potency means the concentration at half of the fitted maximal effect.

SMILES | Potency | activity change, negative = inhibition
CC1CCN(S(=O)(=O)c2cccc(C(=O)N(C)C3CCS(=O)(=O)C3)c2)CC1 (configuration not stated) | inconclusive: 3.7 µM [inhibitor, full curve, poor fit] | 
C=CCNC(=O)c1c(CSc2ccc(F)cc2)noc1C(=O)NCCC | inconclusive: 18.5 µM [inhibitor, single point] | 
CCOC(=O)N1CCN(C(=O)C2CCC(=O)N(CCCN3CCCC3=O)C2)CC1 (configuration not stated) |  | inactive: -27%
CC(=O)Nc1cccc(Cn2cccn2)c1 | active: 13.1 µM | 
Cc1ccc(Cn2c(SC(C)C(N)=O)nc3ccccc3c2=O)cc1 (configuration not stated) | inconclusive: 5.86 µM [inhibitor, partial curve] | 
S=C(Nc1ccccc1)Nc1cccc(Cl)c1Cl | inconclusive: 10.4 µM [inhibitor, single point] | 
O=C(Cc1cccs1)N1CCN(c2ccc(F)cc2)CC1 | inconclusive: 1.47 µM [inhibitor, partial curve, poor fit] | 
COc1ccc(F)cc1S(=O)(=O)n1nc(C)cc1C |  | inactive: -29.1%
O=C(/C(=C(\[O-])c1ccccc1)[n+]1ccc2ccccc2c1)c1ccc([N+](=O)[O-])cc1 |  | inactive: -22.2%
Cn1c(C=O)c(-c2ccc3c(c2)OCCO3)c2ccccc21 | inconclusive: 3.29 µM [inhibitor, single point] | 
Cn1c(Cn2c(=O)sc3ccccc32)nnc1SCc1ccccc1F | active: 11.7 µM | 
CCCCc1ccc(NS(=O)(=O)N(C)C)cc1 | active: 10.4 µM | 
Cc1cc(C(=O)Cn2nc(C(=O)O)c3ccccc3c2=O)c(C)n1-c1ccccc1 |  | inactive: 103%
CCOC(=O)C1CCCN(C(=O)CCc2ccccc2)C1 (configuration not stated) |  | inactive: -2.59%
CCN(CC)CCN1C(=O)C2C(C(=O)Nc3ccc(Br)cc3)C3C=CC2(O3)C1C(=O)NC1CCCCC1 (configuration not stated) | inconclusive: 10.4 µM [inhibitor, single point] | 
Cc1ccc(NC(=O)c2cc(S(=O)(=O)N3CCOCC3)ccc2F)c(C)c1 | inconclusive: 10.4 µM [inhibitor, single point] | 
CC(Oc1ccc(F)cc1)C(=O)Nc1cc(C(F)(F)F)ccc1-n1cncn1 (configuration not stated) | active: 0.415 µM | 
COc1ccc(C(=O)C2CCCN(C3Cc4ccccc4C3)C2)c(OC)c1 (configuration not stated) |  | inactive: -12.3%
CC(C)Oc1ccc2c(c1)OC(c1ccccc1)(C(F)(F)F)NC2=O (configuration not stated) | active: 0.185 µM | 
Cc1ccccc1C(=O)Nc1ccnn1C1CCN(Cc2ccccn2)CC1 | inconclusive: 0.928 µM [inhibitor, partial curve, poor fit] | 
COC(=O)/C=C1/SC(=NC(=O)c2ccc(OC)cc2)NC1=O | inconclusive: 13.1 µM [inhibitor, single point] | 
CN(C)C(=O)CSc1nnc(Cc2ccc([N+](=O)[O-])cc2)o1 |  | inactive: 165%
O=C(O)CCCCCNC(=O)/C=C/c1ccco1 | inconclusive: 14.7 µM [inhibitor, single point] | 
COc1cc(-c2cc(-c3nnco3)c3ccccc3n2)cc(OC)c1OC | inconclusive: 13.1 µM [inhibitor, single point] | 

SMILES | Potency | activity change, negative = inhibition
COc1ccc(N2CCN(C(=O)c3nn(C)c4c3CS(=O)(=O)c3ccccc3-4)CC2)cc1 |  | inactive: 6.46%
CCOc1ccc(OCCC(=O)N2CCc3cc(OC)c(OC)cc3C2)cc1 | inconclusive: 7.38 µM [inhibitor, partial curve] | 
Cn1c(N)c(C(=O)c2cc(-c3ccncc3)nc3ccccc23)c(=O)n(C)c1=O | inconclusive: 8.28 µM [inhibitor, partial curve, poor fit] | 
COc1ccc(C(=O)c2ccccc2)c(OCC(=O)NC2CC2)c1 | inconclusive: 9.28 µM [inhibitor, partial curve, poor fit] | 
CCc1ccc(NC(=O)CCc2nnc3ccc(N4CCC5(CC4)OCCO5)nn23)cc1 | inconclusive: 9.28 µM [inhibitor, partial curve, poor fit] | 
O=C(NCCc1c[nH]c2ccccc12)c1ccc(Cl)cc1 | inconclusive: 14.7 µM [inhibitor, single point] | 
Cc1cc(N(CN2CCCC2=O)C(=O)c2ccccc2)no1 | inconclusive: 8.28 µM [inhibitor, partial curve] | 
O=c1c2nnn(Cc3ccccc3)c2ncn1-c1ccccc1 |  | inactive: 3.62%
O=C(NCCC1=CCCCC1)C1CCN(C(=O)c2ccc(Br)cc2)CC1 | inconclusive: 18.5 µM [inhibitor, single point] | 
COC(=O)C(C)n1cnc2c(nnn2-c2ccc(OC)cc2)c1=O (configuration not stated) | active: 4.15 µM | 
O=C(CCCC1=NS(=O)(=O)c2ccccc2N1)N1CCN(c2ccccc2)CC1 |  | inactive: 205%
O=C(COc1ccc(-c2ccccc2)cc1)N/N=C/c1ccccc1Br | inconclusive: 0.147 µM [inhibitor, partial curve, poor fit] | 
O=C(Nc1ccc(Oc2ccc(NC(=O)c3ccco3)c(NC(=O)c3ccco3)c2)cc1)c1ccco1 |  | inactive: -29.6%
Cc1cccc2cn[nH]c12 | inconclusive: 4.65 µM [inhibitor, partial curve, poor fit] | 
CC(C)(C)C1CCc2c(sc(N)c2C(N)=O)C1 (configuration not stated) |  | inactive: 1.57%
COc1ccc(-n2c(Cc3cccn3C)nnc2SCC(=O)NCCc2ccccc2)cc1 |  | inactive: 1.56%
Cc1cc(N)ccc1NC(=O)CN1CCCC1 | inconclusive: 18.5 µM [inhibitor, single point] | 
O=C(Cc1ccccc1)NN1C(=O)C2C(C1=O)C1C=CC2C12CC2 (configuration not stated) | inconclusive: 0.415 µM [inhibitor, partial curve, poor fit] | 
CC(=O)NCC(=O)NC(Cc1ccccc1)C(N)=O (configuration not stated) (Ac-Gly-[ξF]-NH2) | inconclusive: 9.28 µM [inhibitor, partial curve] | 
Cc1ccc(N2CC(C(=O)Nc3nccs3)CC2=O)cc1Cl (configuration not stated) |  | inactive: -17.6%
Nc1nc(-c2ccc(Cl)cc2)c(N=Nc2ccc(S(=O)(=O)N3CCOCC3)cc2)s1 | inconclusive: 3.29 µM [inhibitor, single point] | 
CCC(C)[C@H](NC(=O)N1CCn2c1nc1ccccc12)C(=O)NCc1ccccc1 (some centres not stated) |  | inactive: 0.346%
Cn1c(SCC(=O)N2CCOCC2)nnc1-c1ccccc1 | inconclusive: 18.5 µM [inhibitor, single point] | 
Cc1ccc2c(c1)C=CC(C)N2C(=O)c1ccccc1 (configuration not stated) | inconclusive: 0.415 µM [inhibitor, partial curve, poor fit] | 

SMILES | Potency | activity change, negative = inhibition
CC(C(=O)Nc1ccccc1-c1ccccc1)N1CCOCC1 (configuration not stated) | inconclusive: 10.4 µM [inhibitor, single point] | 
COC(=O)NC1(C(=O)O)CCCC1 |  | inactive: 0.84%
CCOc1ccc(C(=O)NCc2cccs2)cc1 | active: 0.657 µM | 
COc1ccc2[nH]c3c(c2c1)CCN1C(=O)N([C@@H](C)C(=O)NCCc2ccc(OC)c(OC)c2)C(=O)[C@]31C | active: 10.4 µM | 
CC(C)C(=O)Nc1ccc(-c2csc(-c3ccccc3)n2)cc1 |  | inactive: 126%
c1cncc(-c2cn(C[C@H]3CC[C@@H]([C@@H]4CC[C@H](Cn5cc(-c6cccnc6)nn5)O4)O3)nn2)c1 |  | inactive: -13.4%
Cc1nn(-c2ccccc2)c(C)c1C(=O)OCC(=O)Nc1ccccc1C(F)(F)F | inconclusive: 18.5 µM [inhibitor, single point] | 
COc1cc(C(c2sc3nc(C)nn3c2O)N2CCc3ccccc3C2)cc(OC)c1OC (configuration not stated) | inconclusive: 5.86 µM [inhibitor, partial curve] | 
COc1ccccc1C(=O)N/C(=C\c1ccccc1)C(=O)NCc1ccco1 |  | inactive: 0.911%
C#CCNC(=O)C1=C[C@H](C2CCCCC2)C[C@H](OCCCCO)O1 | inconclusive: 10.4 µM [inhibitor, single point] | 
COc1cccc(N2C(=O)CC(N3CCc4ccccc4C3)C2=O)c1 (configuration not stated) |  | inactive: 23.1%
O=C(NCc1ccco1)Nc1cccc([N+](=O)[O-])c1 |  | inactive: 45.9%
COc1cc(OC)cc(-c2c(-c3cccs3)c3cc(-c4cccc5[nH]ccc45)ccc3n2C)c1 | inconclusive: 2.08 µM [inhibitor, full curve, poor fit] | 
CN[C@@H]1[C@H](O[C@H]2[C@H](O[C@H]3[C@H](O)[C@@H](O)[C@H](N=C(N)N)[C@@H](O)[C@@H]3N=C(N)N)O[C@@H](C)[C@]2(O)C=O)O[C@@H](CO)[C@H](O)[C@H]1O |  | inactive: 3.79%
CCOc1ccc(Cc2c(Cl)nc(SC)nc2OC)cc1 | inconclusive: 20.8 µM [inhibitor, partial curve, poor fit] | 
COc1cc(NC(=O)CCc2ccccc2)c(C(=O)O)cc1OC | inconclusive: 0.0033 µM [inhibitor, full curve, poor fit] | 
Cc1cccc(CN2CCCC(C(=O)c3ccc(C(F)(F)F)cc3)C2)n1 (configuration not stated) | active: 11.7 µM | 
O=C(CSCC(=O)Nc1nc(-c2ccc3c(c2)OCO3)cs1)Nc1nccs1 |  | inactive: -30.3%
CCC(C(=O)N1CCc2cc(OC)c(OC)cc2C1)c1ccccc1 (configuration not stated) | inconclusive: 4.65 µM [inhibitor, partial curve] | 
Cc1ccc(C(=O)N2CCCC2)cc1S(=O)(=O)Nc1ccccc1 | inconclusive: 18.5 µM [inhibitor, single point] | 
O=C(c1cccc(Br)c1)c1cn(-c2ccccc2)nc1C(=O)c1ccccc1 | inconclusive: 18.5 µM [inhibitor, single point] | 
Cc1ccc(Sc2ncccc2C(=O)O)cc1 |  | inactive: 4.36%
CC(=O)Nc1cccc(NC(=O)CSc2ncc(-c3ccc(Cl)cc3)n2Cc2ccco2)c1 | inconclusive: 9.28 µM [inhibitor, partial curve, poor fit] | 
CC(Sc1n[nH]c(-c2ccccc2F)n1)C(=O)Nc1ccc(S(N)(=O)=O)cc1 (configuration not stated) | inconclusive: 9.28 µM [inhibitor, single point] | 

Part of the list above, in CSV form:
SMILES,Potency,"activity change, negative = inhibition"
CCOc1ccc(C(=O)NCc2cccs2)cc1,active: 0.657 µM,
COc1ccc2[nH]c3c(c2c1)CCN1C(=O)N([C@@H](C)C(=O)NCCc2ccc(OC)c(OC)c2)C(=O)[C@]31C,active: 10.4 µM,
CC(C)C(=O)Nc1ccc(-c2csc(-c3ccccc3)n2)cc1,,inactive: 126%
c1cncc(-c2cn(C[C@H]3CC[C@@H]([C@@H]4CC[C@H](Cn5cc(-c6cccnc6)nn5)O4)O3)nn2)c1,,inactive: -13.4%
Cc1nn(-c2ccccc2)c(C)c1C(=O)OCC(=O)Nc1ccccc1C(F)(F)F,"inconclusive: 18.5 µM [inhibitor, single point]",
COc1cc(C(c2sc3nc(C)nn3c2O)N2CCc3ccccc3C2)cc(OC)c1OC (configuration not stated),"inconclusive: 5.86 µM [inhibitor, partial curve]",
COc1ccccc1C(=O)N/C(=C\c1ccccc1)C(=O)NCc1ccco1,,inactive: 0.911%
C#CCNC(=O)C1=C[C@H](C2CCCCC2)C[C@H](OCCCCO)O1,"inconclusive: 10.4 µM [inhibitor, single point]",
COc1cccc(N2C(=O)CC(N3CCc4ccccc4C3)C2=O)c1 (configuration not stated),,inactive: 23.1%
O=C(NCc1ccco1)Nc1cccc([N+](=O)[O-])c1,,inactive: 45.9%
COc1cc(OC)cc(-c2c(-c3cccs3)c3cc(-c4cccc5[nH]ccc45)ccc3n2C)c1,"inconclusive: 2.08 µM [inhibitor, full curve, poor fit]",
CN[C@@H]1[C@H](O[C@H]2[C@H](O[C@H]3[C@H](O)[C@@H](O)[C@H](N=C(N)N)[C@@H](O)[C@@H]3N=C(N)N)O[C@@H](C)[C@]2(O)C=O)O[C@@H](CO)[C@H](O)[C@H]1O,,inactive: 3.79%
CCOc1ccc(Cc2c(Cl)nc(SC)nc2OC)cc1,"inconclusive: 20.8 µM [inhibitor, partial curve, poor fit]",
COc1cc(NC(=O)CCc2ccccc2)c(C(=O)O)cc1OC,"inconclusive: 0.0033 µM [inhibitor, full curve, poor fit]",
Cc1cccc(CN2CCCC(C(=O)c3ccc(C(F)(F)F)cc3)C2)n1 (configuration not stated),active: 11.7 µM,
